Some of these results come from one statement about several compounds together.
T1: denatured human SPARC (Homo sapiens, UniProt P09486)
T1 sequence (P09486 18-303): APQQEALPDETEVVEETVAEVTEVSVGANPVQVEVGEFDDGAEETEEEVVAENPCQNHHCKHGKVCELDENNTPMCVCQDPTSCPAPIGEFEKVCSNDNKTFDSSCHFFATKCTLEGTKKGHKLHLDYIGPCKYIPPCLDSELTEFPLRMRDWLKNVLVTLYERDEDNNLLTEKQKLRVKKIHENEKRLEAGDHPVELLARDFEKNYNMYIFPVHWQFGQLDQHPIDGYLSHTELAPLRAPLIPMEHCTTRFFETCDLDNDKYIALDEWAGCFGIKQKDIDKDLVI

B1: Imm1: mouse-derived anti-human SPARC antibody from hybridoma, IgG1 (κ) (antibody, V domains shown)
VH: KATGYTFSNYWVEWVKQRPGHGLEWIGEILPGISSTNYDEKFKDKATFTADTSSNTAYMQLSSLTSEDSAVYYCSRGRPAWSAFWGQGTTVT
VL: GDSVSLSCRASQSISNNLHWYQQKSHESPRLLIKYASQSISGIPSRFSGSGSGTDFTLSINSVETEDFGMYFCQQSNSWPLTFGGGTKLELK
B2: Imm10: mouse-derived anti-human SPARC antibody from hybridoma, IgG1 (κ) (antibody, V domains shown)
VH: AASGFTFSYYGMSWVRQTPDKRLEWVATISSGGSYTYYPDSVKGRFTISRDNSENTLYLQMNSLKSEDTAMYFCARRGSSGDYYGMDYWGQG
VL: GEKVTMSCKSSQSLLYSNSQKNYLAWYQQKPGQSPKLLIYWASTRESGVPPRFTGSGSGTDFSLTISSVKAEDLAVYYCQQYYSFPRTFGGG
B3: Imm2: mouse-derived anti-human SPARC antibody from hybridoma, IgG1, 2b (κ) (antibody, V domains shown)
VH: TVTGYSITSDHAWSWIRQFPGNKLEWMGYISYSGSTSYNPSLKSRVSVTRDTSKNHFFLQLNSVTTEDTATYYCARAAFIGGWFAYWGQGTT
VL: GEKVTITCSASSSVSYMHWFQQKPGTSPKLWIYSTPNLASGVPARFSGSGSGTSYSLTISRMEAEDAATYYCQQRSSYPLTFGGGTKLELKQ
B4: Imm3: mouse-derived anti-human SPARC antibody from hybridoma, IgG1, 2b (κ) (antibody, V domains shown)
VH: TVTGYSITSDHAWSWIRQFPGNKLEWMGYISYSGSTSYNPSLKSRVSVTRDTSKNHFFLQLNSVTTEDTATYYCARAAFIGGWFAYWGQGTT
VL: GQKVTITCSASSSVSYMHWYQQKSGTSPKPWIYEISKLASGVPARFSGSGSGTSYSLTISSMEAEDAAIYYCQQWNYPLITFGGGTKLELKR
B5: Imm4: mouse-derived anti-human SPARC antibody from hybridoma, IgG1 (κ) (antibody, V domains shown)
VH: AASGFAFSSYDMSWVRQTPEKRLEWVAYITSGGGSTYYPDTVKGRFTISRDNAKNTLYLQMSSLKSEDTAMYYCAGSRSWFAYWGQGTTVTV
VL: GEGVSFSCRASQSIGTGIHWYQRRTNGSPRLLIKYASESISGIPSRFSGSGSGTDFTLTINSVESEDIADYYCQQSYSWPLTFGAGTKLELK
B6: Imm6: mouse-derived anti-human SPARC antibody from hybridoma, IgG1 (κ) (antibody, V domains shown)
VH: TVTGYSITSDSAWNWIRQFPGNKLEWMGHISYSGSTSYNPSLKSRISITRDTSKDQFFLQLNSVTTEDTATYYCARGSYYGNFGFTYWGQGT
VL: GETVTITCQASENIASDLAWYQKEGRSPQLLVYEARNLADGVPSRFSGSGSDTLYSLNIHSLQSEDVARYYCQHYYGTPWTFGGGTKPRAN

target: T1, denatured human SPARC; assay: Western blot against denatured SPARC; type: binding; settings: SDS polyacrylamide gel
Description: Western blotting was used to determine whether the Imm series antibodies bind to linear or conformational epitopes. In this analysis, SPARC protein was run on a polyacrylamide gel in the presence of SDS. Accordingly, the SPARC protein on the gel was in its denatured form. The Imm series antibodies were used as primary antibodies and were then probed with goat anti-mouse IgG. BSA was used as a negative control.

Binding to denatured SPARC, did not bind denatured SPARC:
B1
B2
B3
B4
B5
B6
